Source: PubChem BioAssay AID504793 (Drosophila RNAi Screening Center, 2011)

Screen: 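Genes required for cells to halt at G2/M after double-strand DNA breaks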 (primary screen)
System: Drosophila S2R+ cells
Reagents: long dsRNA against Drosophila genes, about 0.25 µg dsRNA per well
Duration: 4 days of dsRNA, then 4 hours of drug before read-out
Conditions: doxorubicin 0.5 µM for 4 hours to cause double-strand breaks, in cells also given a low, harmless dose of dsRNA against nbs to sensitise the assay
Measured: 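Mitotic index as the number of phospho-histone H3-positive cells in each well following doxorubicin, given as raw counts without normalisation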
Reading the numbers: mitotic cells: higher = more cells in mitosis, weaker G2 arrest
Call rule: 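Genes are called active only when high mitotic counts were reproduced with independent dsRNAs and mitosis was checked for delay without damage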
Calls: active = confirmed in follow-up tests; inactive = not confirmed
In all, the deposit lists about 23,000 reagents; shown is an unselected part of those that have a named target and a result. In the full data, 62 (0.27%) got an active call. 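Calls come from follow-up tests whose scores are not deposited, so confirmed genes may have low counts here; counts are not normalised per plate.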 Raw values are not corrected between plates. The numbers tell different reagents against one gene apart. A plus sign joins genes that one reagent is predicted to hit. No sequences are given here.

Gene,reagent no.,"mitotic cells, replicate 1",activity call
CG30127 (retired record) (GeneID 246473),1,16,inactive
CG30127 (retired record) (GeneID 246473),2,30,inactive
CG30127 (retired record) (GeneID 246473),3,2,inactive
Gr58b (GeneID 37502),1,4,inactive
CG11279 (GeneID 39486),1,1,inactive
Bub3 (GeneID 43490),1,9,inactive
Bub3 (GeneID 43490),2,10,inactive
dsx (GeneID 40940),1,14,inactive
dsx (GeneID 40940),2,8,inactive
dsx (GeneID 40940),3,10,inactive
dsx (GeneID 40940),4,3,inactive
Ir94e (GeneID 42765),1,14,inactive
CG10307 (GeneID 37477),1,7,inactive
CG10307 (GeneID 37477),2,8,inactive
CG17650 (GeneID 33358),1,7,inactive
Spn42Dd (GeneID 49808),1,8,inactive
Spn42Dd (GeneID 49808),2,,inactive
CG31278 (GeneID 41282),1,5,inactive
CG7744 (GeneID 37239),1,6,inactive
wgn (GeneID 32849),1,6,inactive
Dbx (GeneID 38254),1,5,inactive
Dbx (GeneID 38254),2,5,inactive
Dbx (GeneID 38254),3,3,inactive
Dbx (GeneID 38254),4,6,inactive
CG15160 (GeneID 35109),1,4,inactive
CG15160 (GeneID 35109),2,3,inactive
CG13367 (GeneID 31013),1,6,inactive
CG13367 (GeneID 31013),2,13,inactive
ebd2 (GeneID 40363),1,5,inactive
ebd2 (GeneID 40363),2,6,inactive
CG9733 (GeneID 43601),1,8,inactive
gzl (GeneID 40791),1,11,inactive
gzl (GeneID 40791),2,7,inactive
Pp2B-14D (GeneID 32624),1,7,inactive
Pp2B-14D (GeneID 32624),2,11,inactive
asun (GeneID 41971),1,9,inactive
l(2)10685 (GeneID 33293),1,6,inactive
l(2)10685 (GeneID 33293),2,5,inactive
Dpit47 (GeneID 35565),1,5,inactive
Dpit47 (GeneID 35565),2,4,inactive
CG7368 (GeneID 39301),1,9,inactive
CG7368 (GeneID 39301),2,7,inactive
CG7368 (GeneID 39301),3,2,inactive
CG8072 (GeneID 39181),1,9,inactive
CG16700 (GeneID 32694),1,7,inactive
CG42445 (GeneID 8674111),1,6,inactive
NaPi-T (GeneID 36651),1,6,inactive
NaPi-T (GeneID 36651),2,9,inactive
ea (GeneID 41858),1,7,inactive
ea (GeneID 41858),2,7,inactive
bcd (GeneID 40830),1,5,inactive
bcd (GeneID 40830),2,5,inactive
Tsp97E (GeneID 43241),1,7,inactive
Tsp97E (GeneID 43241),2,3,inactive
Sec24AB (GeneID 36025),1,9,inactive
Sec24AB (GeneID 36025),2,3,inactive
CG10559 (GeneID 43063),1,21,inactive
CG10559 (GeneID 43063),2,4,inactive
SLO2 (GeneID 5740325),1,5,inactive
SLO2 (GeneID 5740325),2,7,inactive
SLO2 (GeneID 5740325),3,8,inactive
SLO2 (GeneID 5740325),4,12,inactive
SLO2 (GeneID 5740325),5,2,inactive
CG7071 + Muted,1,4,inactive
Toll-9 (GeneID 40245),1,2,inactive
Cda4 (GeneID 33144),1,3,inactive
Cda4 (GeneID 33144),2,6,inactive
Cda4 (GeneID 33144),3,4,inactive
Smyd4-4 (GeneID 36299),1,5,inactive
CG14840 (GeneID 41734),1,6,inactive
CG14840 (GeneID 41734),2,8,inactive
CG12702 (GeneID 32993),1,8,inactive
CG12702 (GeneID 32993),2,10,inactive
CG5194 (GeneID 39037),1,9,inactive
Gle1 (GeneID 35849),1,6,inactive
Gle1 (GeneID 35849),2,7,inactive
Efa6 (GeneID 42665),1,21,inactive
Efa6 (GeneID 42665),2,12,inactive
Efa6 (GeneID 42665),3,11,inactive
Hexo1 (GeneID 38528),1,2,inactive
Gbeta5 (GeneID 31744),1,14,inactive
CG4004 (GeneID 32226),1,6,inactive
CG4004 (GeneID 32226),2,8,inactive
CG4004 (GeneID 32226),3,3,inactive
GstD8 (GeneID 48341),1,9,inactive
GstD8 (GeneID 48341),2,3,inactive
CCHa2-R (GeneID 35535),1,9,inactive
CCHa2-R (GeneID 35535),2,5,inactive
LTV1 (GeneID 36146),1,5,inactive
CG14731 (GeneID 41442),1,9,inactive
ThrRS (GeneID 45784),1,6,inactive
TbCMF46 (GeneID 34318),1,10,inactive
CG17249 (GeneID 38201),1,7,inactive
CG16782 (GeneID 31313),1,4,inactive
CtsB (GeneID 32341),1,9,inactive
GlcAT-S (GeneID 34282),1,4,inactive
GlcAT-S (GeneID 34282),2,10,inactive
FucTB (GeneID 34260),1,4,inactive
CG7202 (GeneID 40376),1,,inactive
CG7202 (GeneID 40376),2,6,inactive
mRpS34 (GeneID 39809),1,3,inactive
mRpS34 (GeneID 39809),2,9,inactive
sturkopf (GeneID 38150),1,4,inactive
sturkopf (GeneID 38150),2,11,inactive
gprs (GeneID 36862),1,5,inactive
Prosalpha6T (GeneID 34726),1,3,inactive
GluRIID (GeneID 44483),1,6,inactive
GluRIID (GeneID 44483),2,7,inactive
CG13707 (GeneID 38583),1,5,inactive
CG13484 (GeneID 39560),1,5,inactive
CG13484 (GeneID 39560),2,4,inactive

11 consecutive entries from above:
Gene,reagent no.,"mitotic cells, replicate 1",activity call
ea (GeneID 41858),2,7,inactive
bcd (GeneID 40830),1,5,inactive
bcd (GeneID 40830),2,5,inactive
Tsp97E (GeneID 43241),1,7,inactive
Tsp97E (GeneID 43241),2,3,inactive
Sec24AB (GeneID 36025),1,9,inactive
Sec24AB (GeneID 36025),2,3,inactive
CG10559 (GeneID 43063),1,21,inactive
CG10559 (GeneID 43063),2,4,inactive
SLO2 (GeneID 5740325),1,5,inactive
SLO2 (GeneID 5740325),2,7,inactive
